The values below come from publication PMC2889838.

Chains of the proteins cited; added tags and fusions are not shown.
UniProt P49069: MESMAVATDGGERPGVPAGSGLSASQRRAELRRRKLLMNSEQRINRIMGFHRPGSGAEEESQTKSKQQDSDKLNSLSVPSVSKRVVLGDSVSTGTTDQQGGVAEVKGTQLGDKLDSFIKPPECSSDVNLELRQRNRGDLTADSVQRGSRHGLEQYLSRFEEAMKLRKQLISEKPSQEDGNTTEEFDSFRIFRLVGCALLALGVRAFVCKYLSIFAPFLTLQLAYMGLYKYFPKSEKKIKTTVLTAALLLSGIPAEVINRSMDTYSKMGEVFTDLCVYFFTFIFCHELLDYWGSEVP

No constants are given. Whether binding was seen depends on the method and setting. For part of these data: In cells and extracts the contact can be indirect. Some binding calls cover weakened binding; strength is not graded here. For part of these data: Tags and fused reporters may be left off the sequences shown.

The target of assay [1] is T1, Transmembrane and ubiquitin-like domain containing 1 (Tmub1), full-length, yeast two-hybrid bait (UniProt Q9JMG3).
T1 sequence: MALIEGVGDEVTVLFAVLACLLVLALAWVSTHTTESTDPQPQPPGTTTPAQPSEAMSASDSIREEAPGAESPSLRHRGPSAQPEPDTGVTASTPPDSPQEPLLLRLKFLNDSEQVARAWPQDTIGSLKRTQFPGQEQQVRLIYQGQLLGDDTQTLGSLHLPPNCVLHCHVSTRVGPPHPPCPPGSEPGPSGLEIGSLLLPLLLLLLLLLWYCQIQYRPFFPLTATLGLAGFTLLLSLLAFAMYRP
Put plainly: two-hybrid; screen of the Pretransformed Human Brain … cDNA library (pACT2) with full-length Tmub1 in pGBKT7 as bait, strain AH109; selection on plates with X-alpha-Gal lacking leucine, tryptophan and histidine.

Assay [2] addresses T2, Tmub1-His (6xHis at the C-terminus) (UniProt Q9JMG3).
T2 sequence: T1 sequence
Put plainly: co-IP; His-tagged Tmub1 and FLAG-CAMLG co-expressed in HEK293; lysate in 20mM Tris pH8.0, 150mM NaCl, 1% Triton X-100, 1mM EDTA; captured by anti-His (affinity column), blotted with anti-Flag.

Assay [3] addresses T3, His-Tmub1 (6xHis at the N-terminus) (UniProt Q9JMG3).
T3 sequence: T1 sequence
Described as above.

As to “Calcium modulating cyclophilin ligand (CAMLG/CAML), full-length clone from the human brain cDNA library, yeast two-hybrid prey (from UniProt P49069 1-296)”, in assay [1], the binding entry is on record as “binds”.
In the case of “FLAG-CAMLG (Flag tag at the N-terminus) (from UniProt P49069 1-296)”, the binding result in assay [2] and in assay [3] was “binds” throughout.
